Paper PMC8528824
No constants are given. Whether binding was seen depends on the method and setting. Binding seen in cells or lysates may run through a third protein. Some binding calls cover weakened binding; strength is not graded here.

Amino acid sequences for entries named in this document (tags omitted). Residues count along the entry.
UniProt Q16665: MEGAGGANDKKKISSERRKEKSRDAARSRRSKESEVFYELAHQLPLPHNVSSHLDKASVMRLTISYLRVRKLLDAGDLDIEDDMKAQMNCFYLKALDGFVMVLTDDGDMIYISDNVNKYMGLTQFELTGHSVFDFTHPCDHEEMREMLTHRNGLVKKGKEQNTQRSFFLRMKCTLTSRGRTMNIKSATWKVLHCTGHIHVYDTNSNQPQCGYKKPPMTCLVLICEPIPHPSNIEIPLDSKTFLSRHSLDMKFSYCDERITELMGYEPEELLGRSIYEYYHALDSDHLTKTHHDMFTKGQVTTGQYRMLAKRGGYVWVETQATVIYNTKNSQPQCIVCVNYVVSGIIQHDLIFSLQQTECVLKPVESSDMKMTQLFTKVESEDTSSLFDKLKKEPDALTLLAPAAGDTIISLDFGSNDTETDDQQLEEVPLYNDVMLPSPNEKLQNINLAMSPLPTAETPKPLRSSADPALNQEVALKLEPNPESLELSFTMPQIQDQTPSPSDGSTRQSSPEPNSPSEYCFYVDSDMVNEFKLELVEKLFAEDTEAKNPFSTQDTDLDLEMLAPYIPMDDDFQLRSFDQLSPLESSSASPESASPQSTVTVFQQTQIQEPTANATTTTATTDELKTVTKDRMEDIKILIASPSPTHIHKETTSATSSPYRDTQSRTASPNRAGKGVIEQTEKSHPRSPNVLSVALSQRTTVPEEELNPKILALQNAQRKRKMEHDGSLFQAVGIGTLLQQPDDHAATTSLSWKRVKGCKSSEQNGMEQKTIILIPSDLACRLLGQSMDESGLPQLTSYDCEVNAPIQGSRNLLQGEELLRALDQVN
UniProt P16066, residues 33-1061: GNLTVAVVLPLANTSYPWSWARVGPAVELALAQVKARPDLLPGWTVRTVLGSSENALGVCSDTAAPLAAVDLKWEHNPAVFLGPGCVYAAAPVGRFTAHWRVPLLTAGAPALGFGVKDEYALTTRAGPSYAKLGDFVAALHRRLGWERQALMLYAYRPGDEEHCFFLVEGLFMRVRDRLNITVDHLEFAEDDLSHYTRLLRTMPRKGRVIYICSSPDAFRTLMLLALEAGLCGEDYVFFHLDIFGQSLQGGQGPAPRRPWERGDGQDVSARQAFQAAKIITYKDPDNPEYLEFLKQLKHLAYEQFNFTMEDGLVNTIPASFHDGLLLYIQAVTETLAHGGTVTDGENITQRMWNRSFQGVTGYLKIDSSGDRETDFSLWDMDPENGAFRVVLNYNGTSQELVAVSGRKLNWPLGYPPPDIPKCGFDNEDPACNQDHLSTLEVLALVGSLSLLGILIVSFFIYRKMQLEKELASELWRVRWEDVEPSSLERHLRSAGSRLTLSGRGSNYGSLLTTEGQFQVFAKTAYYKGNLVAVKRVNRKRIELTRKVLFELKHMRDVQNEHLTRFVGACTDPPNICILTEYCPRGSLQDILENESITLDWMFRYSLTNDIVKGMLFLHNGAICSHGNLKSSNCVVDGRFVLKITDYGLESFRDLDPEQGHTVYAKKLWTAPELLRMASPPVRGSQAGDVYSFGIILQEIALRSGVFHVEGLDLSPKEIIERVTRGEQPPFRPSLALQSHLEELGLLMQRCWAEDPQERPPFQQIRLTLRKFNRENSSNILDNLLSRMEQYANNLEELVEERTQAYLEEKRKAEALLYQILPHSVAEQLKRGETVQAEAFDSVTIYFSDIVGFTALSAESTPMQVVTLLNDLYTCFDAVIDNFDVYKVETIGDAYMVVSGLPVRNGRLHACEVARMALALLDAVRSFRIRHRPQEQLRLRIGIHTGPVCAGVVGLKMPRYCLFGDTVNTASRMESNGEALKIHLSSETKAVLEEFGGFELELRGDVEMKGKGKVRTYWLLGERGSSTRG

Assays:
[1] = biological target: Hypoxia-inducible factor-1 alpha (human (endogenous in AGS)) (UniProt Q16665); experiment: co-IP; immunoprecipitation of cell lysates (AGS) with protein A/G-agarose beads, anti-NPRA or anti-HIF-1α antibody; western blot detection
[2] = biological target: Natriuretic peptide receptor A (human (endogenous in AGS)) (UniProt P16066); experiment: as above

Natriuretic peptide receptor A (from UniProt P16066 33-1061)
binding [1]: binds

Hypoxia-inducible factor-1 alpha (from UniProt Q16665 1-826)
binding [2]: binds
